# Taken from: PubChem BioAssay AID652243 (Drosophila RNAi Screening Center, 2013)
# Test: 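Fly genes required for human androgen receptor driven transcription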 (primary screen)
# Cells: Drosophila S2R+ cells
# Knock-down reagent: long dsRNA against Drosophila genes
# Timing: 72 h (48 h, then 24 h hormone)
# Conditions: synthetic androgen R1881 at 10 nM for 24 h
# Measurement: 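Per-well raw luminescence of the androgen-driven firefly reporter and of the Renilla control, two replicates each, without normalisation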
# Reading the numbers: firefly reporter light: higher = more light from androgen-responsive reporter; Renilla control light: higher = more constitutive control signal (cell number, transfection)
# Active means: 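Across duplicate plates, a knock-down whose log firefly/Renilla ratio shifted a set fold down or up from the GFP/LacZ control mean was a hit; the downward cut appears as both 1.5 and 3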
# Calls: active = hit: reporter lowered or raised; inactive = no hit
# In all, the deposit lists about 24,000 reagents; shown is an unselected part of those with a known target gene and a result. Of all reagents, 246 (1%) got an active call. 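Plates not normalised; calls are printed but the firefly/Renilla ratio behind them is not deposited; fold cut for lowering reported inconsistently.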 Raw values are not corrected between plates. Names joined by + are all predicted targets of the reagent. Reagent sequences are not shown. Not stated in the record: the amount of reagent.
target gene,DRSC id,"firefly reporter light, replicate 1","firefly reporter light, replicate 2","Renilla control light, replicate 1","Renilla control light, replicate 2",Call
UQCR-C2,DRSC10405,1.74e5,1.16e5,1.75e6,1.37e6,inactive
UQCR-C2,DRSC28912,4.27e5,4.94e5,7.88e5,1.02e6,inactive
HSPBAP1,DRSC14567,2.78e5,2.34e5,2.60e6,3.05e6,inactive
CR11386 + CR33222,DRSC17781,2.70e5,3.13e5,2.51e6,2.31e6,inactive
CR11386 + CR33222,DRSC23991,6.52e5,5.88e5,7.93e5,7.19e5,inactive
CG1299,DRSC08300,1.41e5,2.18e5,2.05e6,2.53e6,inactive
aos,DRSC11323,1.96e5,2.54e5,2.35e6,1.81e6,inactive
CG9672,DRSC20201,43221,64506,4.14e5,6.75e5,inactive
Dh31-R,DRSC06669,2.05e5,2.24e5,1.26e6,1.43e6,inactive
Dh31-R,DRSC23417,7.38e5,7.47e5,4.57e5,6.37e5,inactive
okr,DRSC00834,8.92e5,8.67e5,2.21e6,1.80e6,inactive
okr,DRSC24838,3.97e5,4.25e5,3.47e5,4.33e5,inactive
CG14342,DRSC00372,1.62e5,1.23e5,7.64e5,9.46e5,inactive
CG14342,DRSC25128,8.74e5,8.94e5,1.39e6,1.18e6,inactive
CG30284,DRSC22150,4.10e5,5.14e5,1.84e6,2.54e6,inactive
CG8617,DRSC07223,58379,60227,9.57e5,9.57e5,inactive
fiz,DRSC20188,96451,97803,7.12e5,7.20e5,inactive
NSD,DRSC15691,1.87e5,2.28e5,2.53e6,2.92e6,inactive
Corin,DRSC06818,5.51e5,1.02e6,1.10e6,2.42e6,inactive
Corin,DRSC28927,3.94e5,5.76e5,1.15e6,1.20e6,inactive
CG42374 + Mettl5,DRSC11085,20441,40915,1.89e5,2.16e5,inactive
CG31419,DRSC15771,1.18e5,71428,1.74e6,9.01e5,inactive
CG31419,DRSC26294,3.97e5,4.54e5,6.49e5,5.49e5,inactive
Tak1,DRSC20390,8.96e5,5.56e5,1.30e6,9.51e5,inactive
Tak1,DRSC20561,1.27e5,81095,4.58e5,2.88e5,inactive
Tak1,DRSC20562,2.30e5,1.42e5,6.38e5,3.91e5,inactive
hale,DRSC10882,1.69e5,1.91e5,1.62e6,1.70e6,inactive
hale,DRSC28772,4.93e5,4.92e5,1.61e6,1.59e6,inactive
temp,DRSC18271,62289,1.10e5,6.16e5,7.31e5,inactive
Cda5,DRSC00529,74098,1.09e5,4.31e5,5.77e5,inactive
Cda5,DRSC00532,1.71e5,1.21e5,6.97e5,6.43e5,inactive
Cda5,DRSC21330,8.72e5,7.77e5,2.28e6,1.65e6,inactive
TfIIFalpha,DRSC12608,91084,1.37e5,3.36e5,3.80e5,inactive
TfIIFalpha,DRSC26379,6.63e5,4.65e5,1.26e6,8.02e5,inactive
TfIIFalpha,DRSC38961,8.79e5,8.51e5,1.55e6,1.22e6,inactive
MYPT-75D,DRSC10743,44174,50752,4.93e5,3.31e5,inactive
Myd88,DRSC06815,1.50e6,1.43e6,1.11e6,9.61e5,inactive
Myd88,DRSC28830,6.75e5,1.04e6,6.13e5,6.16e5,inactive
Myd88,DRSC39025,7.02e5,8.37e5,1.94e6,1.79e6,inactive
CG3168,DRSC18287,60888,69531,7.15e5,4.64e5,inactive
CG3168,DRSC25481,5.85e5,6.07e5,5.15e5,6.30e5,inactive

Single entries from the list:
Result of CG30284 [DRSC22150] under “Call”: inactive
CG42374 + Mettl5 [DRSC11085], Renilla control light, replicate 1 = 1.89e5
Under “Call”, Tak1 [DRSC20390] reads inactive
Value of HSPBAP1 [DRSC14567] under “Call”: inactive
Result for MYPT-75D [DRSC10743] under “firefly reporter light, replicate 2”: 50752
Under “firefly reporter light, replicate 2”, temp [DRSC18271] is entered as 1.10e5
